Source: the supplement of paper PMC10849652
This is one part of the list.

By UniProt entry, the sequences of proteins in these tests, tags left out. Where a name states a change or a piece, a line headed by the entry shows the natural chain unless it says otherwise.
UniProt Q9NX14, whole entry, looked up: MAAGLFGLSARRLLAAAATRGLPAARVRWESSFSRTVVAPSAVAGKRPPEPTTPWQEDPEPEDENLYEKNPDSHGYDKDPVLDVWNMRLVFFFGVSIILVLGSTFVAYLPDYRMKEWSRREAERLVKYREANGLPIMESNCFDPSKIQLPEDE
UniProt Q6P582, whole entry, looked up: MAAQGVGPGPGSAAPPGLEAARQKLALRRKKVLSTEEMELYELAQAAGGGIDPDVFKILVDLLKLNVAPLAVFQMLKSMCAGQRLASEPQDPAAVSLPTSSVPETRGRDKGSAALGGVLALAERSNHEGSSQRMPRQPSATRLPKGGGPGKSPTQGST
UniProt Q8N183: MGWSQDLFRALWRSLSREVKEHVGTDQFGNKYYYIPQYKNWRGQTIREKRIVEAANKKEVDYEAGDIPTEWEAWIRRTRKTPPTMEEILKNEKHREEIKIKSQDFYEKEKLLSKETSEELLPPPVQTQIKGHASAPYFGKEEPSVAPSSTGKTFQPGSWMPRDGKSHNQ
UniProt Q4G0N4: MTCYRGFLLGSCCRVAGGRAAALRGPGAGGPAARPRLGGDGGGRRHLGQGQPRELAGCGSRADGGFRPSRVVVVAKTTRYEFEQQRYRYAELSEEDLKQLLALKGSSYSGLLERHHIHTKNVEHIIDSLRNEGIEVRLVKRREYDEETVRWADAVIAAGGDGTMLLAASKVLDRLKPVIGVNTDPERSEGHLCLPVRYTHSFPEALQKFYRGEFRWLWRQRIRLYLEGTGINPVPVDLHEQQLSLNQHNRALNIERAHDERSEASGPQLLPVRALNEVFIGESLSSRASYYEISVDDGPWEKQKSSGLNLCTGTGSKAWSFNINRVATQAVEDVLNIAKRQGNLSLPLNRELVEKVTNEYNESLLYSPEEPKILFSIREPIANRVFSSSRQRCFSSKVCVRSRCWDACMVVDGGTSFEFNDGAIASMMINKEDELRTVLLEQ
UniProt O95168, whole entry, looked up: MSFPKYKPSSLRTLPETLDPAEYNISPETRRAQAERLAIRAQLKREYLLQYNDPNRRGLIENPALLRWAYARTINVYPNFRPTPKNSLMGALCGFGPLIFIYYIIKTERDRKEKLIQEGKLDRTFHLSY
UniProt O43676, whole entry, looked up: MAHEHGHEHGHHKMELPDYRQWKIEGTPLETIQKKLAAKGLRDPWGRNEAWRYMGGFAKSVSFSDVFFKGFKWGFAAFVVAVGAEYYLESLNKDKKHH
UniProt Q15003, whole entry, looked up: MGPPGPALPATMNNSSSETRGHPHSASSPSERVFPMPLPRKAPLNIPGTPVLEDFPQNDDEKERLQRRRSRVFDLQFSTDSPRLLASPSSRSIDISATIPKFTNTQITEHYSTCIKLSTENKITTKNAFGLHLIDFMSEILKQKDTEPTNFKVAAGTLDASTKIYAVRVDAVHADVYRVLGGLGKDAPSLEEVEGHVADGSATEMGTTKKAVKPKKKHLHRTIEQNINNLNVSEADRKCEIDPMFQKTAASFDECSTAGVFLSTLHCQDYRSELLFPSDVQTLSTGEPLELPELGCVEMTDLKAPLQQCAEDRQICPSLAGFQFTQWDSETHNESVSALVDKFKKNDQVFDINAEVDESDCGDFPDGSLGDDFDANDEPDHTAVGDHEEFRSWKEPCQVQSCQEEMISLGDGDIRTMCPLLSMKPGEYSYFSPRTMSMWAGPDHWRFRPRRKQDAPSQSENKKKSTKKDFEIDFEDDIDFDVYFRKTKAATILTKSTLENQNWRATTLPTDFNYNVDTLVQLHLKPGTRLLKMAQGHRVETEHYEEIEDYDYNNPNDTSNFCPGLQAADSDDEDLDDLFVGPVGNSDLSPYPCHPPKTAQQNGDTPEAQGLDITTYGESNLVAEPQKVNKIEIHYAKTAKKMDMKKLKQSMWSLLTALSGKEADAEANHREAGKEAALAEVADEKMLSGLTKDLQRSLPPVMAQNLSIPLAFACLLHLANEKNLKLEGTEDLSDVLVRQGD
UniProt Q99733: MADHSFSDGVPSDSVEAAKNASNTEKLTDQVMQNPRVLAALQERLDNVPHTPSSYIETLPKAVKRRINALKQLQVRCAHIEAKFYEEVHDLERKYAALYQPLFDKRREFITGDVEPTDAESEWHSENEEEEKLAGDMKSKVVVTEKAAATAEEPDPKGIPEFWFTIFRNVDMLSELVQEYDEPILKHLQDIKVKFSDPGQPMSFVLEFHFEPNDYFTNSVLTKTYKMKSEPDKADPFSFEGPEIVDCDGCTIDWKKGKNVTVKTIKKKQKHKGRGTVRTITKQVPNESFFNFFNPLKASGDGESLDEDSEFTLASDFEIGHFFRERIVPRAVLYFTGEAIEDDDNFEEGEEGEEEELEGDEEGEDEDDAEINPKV
UniProt Q9BXJ9: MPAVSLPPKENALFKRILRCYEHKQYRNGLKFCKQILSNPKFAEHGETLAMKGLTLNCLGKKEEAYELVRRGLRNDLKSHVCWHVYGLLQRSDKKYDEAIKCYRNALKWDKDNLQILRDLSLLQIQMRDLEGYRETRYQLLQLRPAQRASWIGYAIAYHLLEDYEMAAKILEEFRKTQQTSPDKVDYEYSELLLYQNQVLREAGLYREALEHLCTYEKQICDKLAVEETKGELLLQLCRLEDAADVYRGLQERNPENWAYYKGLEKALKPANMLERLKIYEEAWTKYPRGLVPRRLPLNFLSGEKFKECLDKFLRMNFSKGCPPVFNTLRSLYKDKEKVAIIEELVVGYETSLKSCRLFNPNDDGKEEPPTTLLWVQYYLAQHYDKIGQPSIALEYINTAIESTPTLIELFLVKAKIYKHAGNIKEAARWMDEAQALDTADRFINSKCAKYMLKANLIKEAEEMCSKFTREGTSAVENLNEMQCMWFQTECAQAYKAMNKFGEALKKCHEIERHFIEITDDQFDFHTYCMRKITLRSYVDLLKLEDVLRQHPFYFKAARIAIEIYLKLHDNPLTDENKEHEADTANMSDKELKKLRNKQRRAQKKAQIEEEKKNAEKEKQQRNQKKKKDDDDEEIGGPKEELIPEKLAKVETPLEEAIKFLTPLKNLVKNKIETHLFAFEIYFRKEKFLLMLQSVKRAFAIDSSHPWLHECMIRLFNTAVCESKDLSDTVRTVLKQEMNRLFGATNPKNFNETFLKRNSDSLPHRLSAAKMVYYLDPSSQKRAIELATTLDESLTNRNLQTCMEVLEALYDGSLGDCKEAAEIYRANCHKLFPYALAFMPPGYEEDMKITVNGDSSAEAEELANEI
UniProt O75113: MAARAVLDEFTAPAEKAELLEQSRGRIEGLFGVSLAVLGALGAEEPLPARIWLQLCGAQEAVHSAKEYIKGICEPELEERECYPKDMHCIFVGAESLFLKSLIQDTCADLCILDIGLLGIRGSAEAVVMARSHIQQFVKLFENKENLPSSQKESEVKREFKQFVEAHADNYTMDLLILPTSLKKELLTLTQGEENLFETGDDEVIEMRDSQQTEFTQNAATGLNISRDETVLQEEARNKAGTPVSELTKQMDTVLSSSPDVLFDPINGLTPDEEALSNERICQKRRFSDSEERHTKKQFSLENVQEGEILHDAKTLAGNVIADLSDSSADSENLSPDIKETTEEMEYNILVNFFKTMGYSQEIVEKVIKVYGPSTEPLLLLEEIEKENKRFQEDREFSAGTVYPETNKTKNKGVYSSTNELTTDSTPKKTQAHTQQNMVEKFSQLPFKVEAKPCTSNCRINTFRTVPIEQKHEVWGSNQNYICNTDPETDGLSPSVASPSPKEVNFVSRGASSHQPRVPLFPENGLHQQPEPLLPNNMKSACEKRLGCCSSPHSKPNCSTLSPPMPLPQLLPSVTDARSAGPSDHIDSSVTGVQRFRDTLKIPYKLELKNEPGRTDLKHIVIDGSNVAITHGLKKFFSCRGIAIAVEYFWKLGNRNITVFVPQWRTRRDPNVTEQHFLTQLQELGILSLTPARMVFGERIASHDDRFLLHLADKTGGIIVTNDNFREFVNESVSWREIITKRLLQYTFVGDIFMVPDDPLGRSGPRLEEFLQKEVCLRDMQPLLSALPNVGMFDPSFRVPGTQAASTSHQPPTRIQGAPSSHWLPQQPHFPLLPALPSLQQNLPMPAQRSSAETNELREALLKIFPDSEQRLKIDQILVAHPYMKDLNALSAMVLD
UniProt O75380, whole entry, looked up: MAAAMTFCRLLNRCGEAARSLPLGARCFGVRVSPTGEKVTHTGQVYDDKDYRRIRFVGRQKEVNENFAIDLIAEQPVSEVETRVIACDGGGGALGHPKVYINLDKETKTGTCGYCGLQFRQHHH
UniProt Q96HR8: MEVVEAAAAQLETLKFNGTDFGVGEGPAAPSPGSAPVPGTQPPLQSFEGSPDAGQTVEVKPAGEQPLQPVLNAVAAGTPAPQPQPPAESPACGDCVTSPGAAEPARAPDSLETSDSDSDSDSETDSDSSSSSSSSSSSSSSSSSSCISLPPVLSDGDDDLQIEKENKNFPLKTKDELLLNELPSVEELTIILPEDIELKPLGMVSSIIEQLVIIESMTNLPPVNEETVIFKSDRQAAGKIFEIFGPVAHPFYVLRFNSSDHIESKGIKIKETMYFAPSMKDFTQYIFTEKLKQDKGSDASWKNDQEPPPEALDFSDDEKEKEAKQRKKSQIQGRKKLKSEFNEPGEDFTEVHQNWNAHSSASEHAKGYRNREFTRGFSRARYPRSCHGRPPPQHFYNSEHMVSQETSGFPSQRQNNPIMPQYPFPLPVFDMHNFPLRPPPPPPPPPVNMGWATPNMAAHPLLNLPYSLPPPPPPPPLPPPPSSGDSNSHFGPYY
UniProt P17568, whole entry, looked up: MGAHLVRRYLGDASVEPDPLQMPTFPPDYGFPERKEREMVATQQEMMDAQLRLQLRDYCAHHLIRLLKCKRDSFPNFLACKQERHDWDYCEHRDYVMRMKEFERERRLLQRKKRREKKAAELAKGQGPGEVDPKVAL
UniProt Q9BSU3: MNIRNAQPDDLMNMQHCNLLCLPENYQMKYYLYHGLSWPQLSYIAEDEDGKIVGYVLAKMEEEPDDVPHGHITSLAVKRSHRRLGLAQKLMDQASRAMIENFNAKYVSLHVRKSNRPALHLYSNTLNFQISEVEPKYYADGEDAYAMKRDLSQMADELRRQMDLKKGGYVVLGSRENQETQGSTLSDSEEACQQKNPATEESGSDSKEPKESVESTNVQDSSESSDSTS

What was measured:
Test in all cases: log2 fold change, soluble protein after heating vs DMSO (PISA); higher = thermal stabilisation; K562 cells, 10 uM, 30 min; active = over 0.2 and 3.5 SD of the protein, either way, in both replicates (recomputed)
saracatinib = compound: CN1CCN(CCOc2cc(OC3CCOCC3)c3c(Nc4c(Cl)ccc5c4OCO5)ncnc3c2)CC1 [saracatinib]
Outline: (§1)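 Soluble protein was defined as the supernatant after 21,000xg for 90 min. It came from K562 cells at 2×10^6 cells/mL given 10 μM compound for 30 min, heated in aliquots for 3 min across 48°C-58°C, pooled, and extracted in PBS with 0.5% NP-40 at 4°C, and was quantified by TMTpro 16plex LC-MS/MS with equalised channel sums. Thermal stability against control samples, from duplicates, is reported as log2 fold change.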

sotrastaurin = compound: CN1CCN(c2nc(C3=C(c4c[nH]c5ccccc45)C(=O)NC3=O)c3ccccc3n2)CC1 [sotrastaurin]
Outline: as §1

alvocidib = compound: CN1CC[C@H](c2c(O)cc(O)c3c(=O)cc(-c4ccccc4Cl)oc23)[C@H](O)C1 [alvocidib]
Outline: as §1

Tubastatin A = compound: CN1CCc2c(c3ccccc3n2Cc2ccc(C(=O)NO)cc2)C1 [Tubastatin A]
Outline: as §1

[1] = compound: CNC(=O)C1=CC=CC=C1NC2=NC(=NC=C2Cl)NC3=C(C=C(C=C3)N4CCOCC4)OC
Outline: as §1

defactinib = compound: CNC(=O)c1ccc(Nc2ncc(C(F)(F)F)c(NCc3nccnc3N(C)S(C)(=O)=O)n2)cc1 [defactinib]
Outline: as §1

rucaparib = compound: CNCc1ccc(-c2[nH]c3cc(F)cc4c3c2CCNC4=O)cc1 [rucaparib]
Outline: as §1

[2] = compound: CNc1nc(-c2ccc3c(N)n[nH]c3c2)cc(N2C[C@@H](C(=O)NC3CCCCC3)CC[C@H]2C)n1
Outline: as §1

encorafenib = compound: COC(=O)N[C@@H](C)CNc1nccc(-c2cn(C(C)C)nc2-c2cc(Cl)cc(NS(C)(=O)=O)c2F)n1 [encorafenib]
Outline: as §1

[3] = compound: COC(=O)[C@H](CCSC)NC(=O)C1=C(C=C(C=C1)NC[C@H](CS)N)C2=CC=CC=C2
Outline: as §1

[4] = compound: COC1=CC=C(C=C1)CN2C=CC3=C2C=C(C=C3)C(=O)NO
Outline: as §1

filanesib = compound: CON(C)C(=O)N1N=C(c2cc(F)ccc2F)S[C@@]1(CCCN)c1ccccc1 [filanesib]
Outline: as §1

zotarolimus = compound: CO[C@H]1C[C@@H]2CC[C@@H](C)[C@@](O)(O2)C(=O)C(=O)N2CCCC[C@H]2C(=O)O[C@H]([C@H](C)C[C@@H]2CC[C@H](n3cnnn3)[C@H](OC)C2)CC(=O)[C@H](C)/C=C(\C)[C@@H](O)[C@@H](OC)C(=O)[C@H](C)C[C@H](C)/C=C/C=C/C=C/1C [zotarolimus]
Outline: as §1

idasanutlin = compound: COc1cc(C(=O)O)ccc1NC(=O)[C@@H]1N[C@@H](CC(C)(C)C)[C@](C#N)(c2ccc(Cl)cc2F)[C@H]1c1cccc(Cl)c1F [idasanutlin]
Outline: as §1

alisertib = compound: COc1cc(Nc2ncc3c(n2)-c2ccc(Cl)cc2C(c2c(F)cccc2OC)=NC3)ccc1C(=O)O [alisertib]
Outline: as §1

[5] = compound: COc1cc2nc(-c3cc(F)ccc3O)nc(N[C@@H]3CNC[C@H]3C(C)(C)O)c2cc1OC
Outline: as §1

gefitinib = compound: COc1cc2ncnc(Nc3ccc(F)c(Cl)c3)c2cc1OCCCN1CCOCC1 [gefitinib]
Outline: as §1

[6] = compound: COc1cccc2cc(-c3nc([C@H]4CC[C@H](C(=O)O)CC4)n4ncnc(N)c34)[nH]c12
Outline: as §1

lapatinib = compound: CS(=O)(=O)CCNCc1ccc(-c2ccc3ncnc(Nc4ccc(OCc5cccc(F)c5)c(Cl)c4)c3c2)o1 [lapatinib]
Outline: as §1

pictilisib = compound: CS(=O)(=O)N1CCN(Cc2cc3nc(-c4cccc5[nH]ncc45)nc(N4CCOCC4)c3s2)CC1 [pictilisib]
Outline: as §1

Measured: log2 fold change

NDUFB11 isoform 2 (UniProt Q9NX14)
inactive: saracatinib -0.025 | sotrastaurin -0.007 | alvocidib 0.014 | Tubastatin A 0.013 | [1] 0.039 | defactinib -0.024 | rucaparib -0.02 | [2] 0 | encorafenib -0.029 | [3] -0.032 | [4] 0.026 | filanesib -0.065 | zotarolimus 0.029 | idasanutlin -0.045 | alisertib -0.011 | [5] -0.099 | gefitinib -0.014 | [6] 0.017 | lapatinib 0.006 | pictilisib -0.003

MZT2A (UniProt Q6P582)
inactive: saracatinib 0.013 | sotrastaurin 0.048 | alvocidib -0.047 | Tubastatin A 0.244 | [1] 0.006 | defactinib 0.05 | rucaparib 0.1 | [2] -0.064 | encorafenib 0.067 | [3] 0.05 | [4] 0.024 | filanesib 0.016 | zotarolimus -0.038 | idasanutlin -0.015 | alisertib -0.027 | [5] -0.087 | gefitinib -0.031 | [6] -0.025 | lapatinib 0.091 | pictilisib -0.081

NDUFAF2 (UniProt Q8N183)
inactive: saracatinib 0.015 | sotrastaurin 0.044 | alvocidib -0.028 | Tubastatin A 0 | [1] -0.009 | defactinib -0.018 | rucaparib -0.009 | [2] -0.049 | encorafenib -0.034 | [3] 0.034 | [4] 0.052 | filanesib -0.047 | zotarolimus -0.067 | idasanutlin -0.05 | alisertib -0.025 | [5] -0.077 | gefitinib -0.007 | [6] 0.032 | lapatinib 0.006 | pictilisib 0.052

NADK2 (UniProt Q4G0N4)
inactive: saracatinib 0.051 | sotrastaurin 0.073 | alvocidib -0.003 | Tubastatin A -0.046 | [1] -0.017 | defactinib -0.009 | rucaparib 0.023 | [2] -0.037 | encorafenib -0.006 | [3] 0.001 | [4] -0.036 | filanesib -0.011 | zotarolimus -0.015 | idasanutlin -0.029 | alisertib -0.066 | [5] 0.018 | gefitinib 0.031 | [6] 0.035 | lapatinib -0.023 | pictilisib 0.016

NDUFB4 (UniProt O95168)
inactive: saracatinib 0.036 | sotrastaurin -0.012 | alvocidib -0.012 | Tubastatin A 0.019 | [1] 0.054 | defactinib 0 | rucaparib 0.063 | [2] -0.023 | encorafenib -0.068 | [3] 0.033 | [4] -0.055 | filanesib -0.107 | zotarolimus 0.001 | idasanutlin 0.101 | alisertib -0.154 | [5] -0.019 | gefitinib -0.007 | [6] -0.028 | lapatinib -0.056 | pictilisib 0.018

NCALD (UniProt P61601)
inactive: saracatinib 0.006 | sotrastaurin -0.018 | alvocidib 0.034 | Tubastatin A -0.027 | [1] -0.006 | defactinib 0.019 | rucaparib -0.021 | [2] -0.059 | encorafenib 0.002 | [3] 0 | [4] -0.048 | filanesib -0.179 | zotarolimus -0.03 | idasanutlin -0.053 | alisertib 0.029 | [5] -0.022 | gefitinib 0.082 | [6] 0.079 | lapatinib 0.071 | pictilisib 0.009

NDUFB3 (UniProt O43676)
inactive: saracatinib 0.068 | sotrastaurin 0.047 | alvocidib -0.012 | Tubastatin A -0.011 | [1] 0.024 | defactinib 0.001 | rucaparib -0.054 | [2] -0.035 | encorafenib -0.015 | [3] 0.014 | [4] -0.047 | filanesib -0.003 | zotarolimus -0.029 | idasanutlin -0.003 | alisertib -0.021 | [5] -0.058 | gefitinib -0.03 | [6] 0.068 | lapatinib -0.005 | pictilisib 0.051

NCAPH (UniProt Q15003)
inactive: saracatinib 0.001 | sotrastaurin -0.15 | Tubastatin A 0.04 | [1] 0.024 | defactinib -0.119 | rucaparib 0.074 | [2] 0.009 | encorafenib 0.057 | [3] -0.039 | [4] -0.03 | filanesib 0.018 | zotarolimus 0.024 | idasanutlin -0.046 | alisertib 0.016 | [5] 0.092 | gefitinib 0 | [6] -0.065 | lapatinib -0.021 | pictilisib 0.062

NA, A0A0B4J2A0
inactive: saracatinib 0.007 | sotrastaurin 0.044 | Tubastatin A -0.058 | [1] -0.077 | defactinib -0.051 | rucaparib -0.005 | [2] -0.022 | encorafenib -0.003 | [3] -0.037 | [4] 0.084 | filanesib -0.045 | zotarolimus -0.021 | idasanutlin -0.016 | alisertib 0.129 | [5] -0.029 | gefitinib -0.092 | [6] 0.023 | lapatinib -0.026 | pictilisib 0.05

NAP1L4 isoform 2 (UniProt Q99733)
inactive: saracatinib 0.011 | sotrastaurin 0 | alvocidib 0.002 | Tubastatin A -0.036 | [1] 0.003 | defactinib -0.02 | rucaparib -0.017 | [2] -0.037 | encorafenib 0.016 | [3] 0.005 | [4] -0.014 | filanesib 0.026 | zotarolimus 0.018 | idasanutlin -0.036 | alisertib -0.031 | [5] 0.056 | gefitinib 0.001 | [6] -0.002 | lapatinib 0.037 | pictilisib 0.048

NAA15 (UniProt Q9BXJ9)
inactive: saracatinib 0.014 | sotrastaurin 0.017 | alvocidib -0.084 | Tubastatin A -0.012 | [1] -0.002 | defactinib -0.05 | rucaparib -0.035 | [2] -0.02 | encorafenib 0.001 | [3] -0.007 | [4] 0.004 | filanesib -0.052 | zotarolimus 0.022 | idasanutlin -0.035 | alisertib 0.022 | [5] 0.006 | gefitinib 0.025 | [6] 0.015 | lapatinib 0 | pictilisib -0.03

N4BP1 (UniProt O75113)
inactive: saracatinib 0.03 | sotrastaurin -0.083 | alvocidib -0.041 | Tubastatin A 0.131 | [1] 0.111 | defactinib -0.089 | rucaparib 0.004 | [2] 0.026 | encorafenib -0.034 | [3] -0.113 | [4] 0.098 | filanesib 0.081 | zotarolimus 0.171 | idasanutlin 0.005 | alisertib 0.184 | [5] 0.237 | gefitinib 0.044 | [6] -0.06 | lapatinib -0.046 | pictilisib 0.138

NDUFS6 (UniProt O75380)
inactive: saracatinib 0.08 | sotrastaurin 0.126 | alvocidib 0.061 | Tubastatin A -0.188 | [1] -0.05 | defactinib 0.047 | rucaparib 0.032 | [2] -0.032 | encorafenib -0.057 | [3] 0.08 | [4] -0.093 | filanesib -0.004 | zotarolimus -0.064 | idasanutlin 0.025 | alisertib -0.026 | [5] -0.101 | gefitinib -0.065 | [6] 0.042 | lapatinib 0 | pictilisib -0.025

NAF1 (UniProt Q96HR8)
inactive: saracatinib 0.097 | sotrastaurin 0.048 | alvocidib 0.014 | Tubastatin A 0.007 | [1] -0.041 | defactinib 0.014 | rucaparib 0.032 | [2] 0.024 | encorafenib 0.011 | [3] 0.015 | [4] -0.016 | filanesib 0.044 | zotarolimus 0.041 | idasanutlin -0.008 | alisertib -0.02 | [5] 0.028 | gefitinib -0.072 | [6] 0.04 | lapatinib 0.026 | pictilisib 0.053

Two successive entries out of the list so far:
N4BP1 (UniProt O75113)
inactive: saracatinib 0.03 | sotrastaurin -0.083 | alvocidib -0.041 | Tubastatin A 0.131 | [1] 0.111 | defactinib -0.089 | rucaparib 0.004 | [2] 0.026 | encorafenib -0.034 | [3] -0.113 | [4] 0.098 | filanesib 0.081 | zotarolimus 0.171 | idasanutlin 0.005 | alisertib 0.184 | [5] 0.237 | gefitinib 0.044 | [6] -0.06 | lapatinib -0.046 | pictilisib 0.138

NDUFS6 (UniProt O75380)
inactive: saracatinib 0.08 | sotrastaurin 0.126 | alvocidib 0.061 | Tubastatin A -0.188 | [1] -0.05 | defactinib 0.047 | rucaparib 0.032 | [2] -0.032 | encorafenib -0.057 | [3] 0.08 | [4] -0.093 | filanesib -0.004 | zotarolimus -0.064 | idasanutlin 0.025 | alisertib -0.026 | [5] -0.101 | gefitinib -0.065 | [6] 0.042 | lapatinib 0 | pictilisib -0.025

Further records:

NDUFB7 (UniProt P17568)
inactive: saracatinib 0.046 | sotrastaurin -0.014 | Tubastatin A 0.016 | [1] 0.021 | defactinib -0.015 | rucaparib -0.021 | [2] -0.011 | encorafenib -0.032 | [3] 0.029 | [4] -0.011 | filanesib -0.023 | zotarolimus -0.03 | idasanutlin -0.025 | alisertib -0.051 | [5] -0.077 | gefitinib 0 | [6] 0.002 | lapatinib -0.013 | pictilisib -0.066

NAA11 (UniProt Q9BSU3)
inactive: saracatinib 0.033 | sotrastaurin -0.247 | Tubastatin A 0.035 | [1] -0.078 | defactinib -0.132 | rucaparib 0.135 | [2] -0.133 | encorafenib 0.022 | [3] 0.034 | [4] 0.077 | filanesib -0.026 | zotarolimus -0.022 | idasanutlin 0.037 | alisertib -0.066 | [5] 0.13 | gefitinib 0.037 | [6] 0.116 | lapatinib -0.085
